Tested on: MCF7
Test: Antiproliferative activity against human MCF7 cells assessed as reduction in cell growth incubated for 24 hrs by MTT assay
Format: functional, cell-based
Conditions: MCF7, 24 h
How it was run: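 MTT assay. Cells seeded at 4 × 10^4 per well and incubated overnight. Treated 24 h; DMSO served as negative control and doxorubicin as positive control. MTT dye 0.5 mg/mL added for 2 h at 37 °C, formazan dissolved in DMSO, absorbance read at 570 nm. Single-concentration screen at 10; dose-dependent dilutions gave IC50. WI-38 fibroblasts grown in DMEM with 10% FBS and 1% penicillin/streptomycin. Triplicate means ± S.E.M.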

## COc1cccc2c1C(=O)c1c(O)c3c(c(O)c1C2=O)C[C@@](O)(C(=O)CO)C[C@@H]3O[C@H]1C[C@H](N)[C@H](O)[C@H](C)O1 [DOXORUBICIN]
  IC50: 920 nM
